These are yes or no findings as the source states them, for the method shown. Binding seen in cells or lysates may run through a third protein. Some entries that bind do so weakly or less than the wild type.

Chains of the proteins cited; added tags and fusions are not shown.
UniProt Q9UKI2: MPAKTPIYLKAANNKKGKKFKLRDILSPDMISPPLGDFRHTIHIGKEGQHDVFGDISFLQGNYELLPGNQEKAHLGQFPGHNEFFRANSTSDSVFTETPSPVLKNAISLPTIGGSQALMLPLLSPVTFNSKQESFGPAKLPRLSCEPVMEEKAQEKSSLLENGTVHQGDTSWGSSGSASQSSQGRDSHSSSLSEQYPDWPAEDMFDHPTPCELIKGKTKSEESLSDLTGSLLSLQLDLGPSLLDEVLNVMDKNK
UniProt P01106: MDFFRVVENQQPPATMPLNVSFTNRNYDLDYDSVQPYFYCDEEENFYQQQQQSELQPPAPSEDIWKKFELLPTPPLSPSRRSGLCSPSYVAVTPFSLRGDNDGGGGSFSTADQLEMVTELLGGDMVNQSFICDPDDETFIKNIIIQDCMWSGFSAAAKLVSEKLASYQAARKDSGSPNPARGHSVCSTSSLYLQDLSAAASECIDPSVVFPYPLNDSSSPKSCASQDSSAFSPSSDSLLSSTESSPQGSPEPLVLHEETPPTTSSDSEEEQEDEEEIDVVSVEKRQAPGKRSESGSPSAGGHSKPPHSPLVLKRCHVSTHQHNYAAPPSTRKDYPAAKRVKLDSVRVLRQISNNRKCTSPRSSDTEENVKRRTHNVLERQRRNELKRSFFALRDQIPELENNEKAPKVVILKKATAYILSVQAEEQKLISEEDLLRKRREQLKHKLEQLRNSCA

The target in the experiment is CDC42EP3 (CDC42 effector protein 3) (human) (UniProt Q9UKI2). The experiment is described as follows: co-IP; protein lysate (1.0~1.2 mg) of U251 cells incubated with antibodies at 4 °C overnight, then with beads for 2 h at 4 °C; washed three times; SDS-PAGE and Western blot.

Turning to c-Myc (from UniProt P01106 1-454), the binding result is “binds”.

The values above are taken from paper PMC8975815.
